The source of these data is PubChem BioAssay AID248 (DTP/NCI, 2004).

This experiment deals with L1210 leukemia ip in BDF1 mice, survival T/C. The experiment is described as follows: NCI In Vivo Anticancer Drug Screen. Data for tumor model L1210 Leukemia (intraperitoneal) in B6D2F1 (BDF1) mice. The conditions noted are these: T/C endpoint: mean survival time, higher T/C = longer survival.
Setting [1] is: dose: 400.0 mg/kg/injection, schedule: Q01DX009 (ip), vehicle: saline.
Where [2] appears, read: dose: 400.0 mg/kg/injection, schedule: Q01DX001 (ip), vehicle: saline.
The mark [3] stands for this setting: dose: 200.0 mg/kg/injection, schedule: Q04DX003 (ip), vehicle: Klucel (hydroxypropylcellulose) (HPC).
Setting [4] is: dose: 400.0 mg/kg/injection, schedule: Q04DX003 (ip), vehicle: Klucel (hydroxypropylcellulose) (HPC).
Where [5] appears, read: dose: 200.0 mg/kg/injection, schedule: Q04DX002 (ip), vehicle: saline with Tween-80.
[6] abbreviates: dose: 400.0 mg/kg/injection, schedule: Q04DX002 (ip), vehicle: saline with Tween-80.

The list does not hold the whole screen: it is rich in T/C values a quarter to a half above the control, in often repeated tests (any T/C) and in doses without a T/C. Other doses and runs of a compound stand elsewhere. T/C gives the treated animals as a percentage of the vehicle group. Some entries give survivors of the animals treated and no T/C: the source holds a T/C of zero for them, seemingly a mark for toxic or unscored doses. Some survivor counts are full or nearly so, which does not show that the dose was tolerated: survival well below the control is almost never listed, so the zero probably covers shortened survival too. Survivors were counted at the toxicity check, usually on the fifth day, unless a day is given; later deaths do not show. Schedules are NCI's codes, taken here to give the interval after Q, in days (D) or hours (H), and the number of doses after X. Some doses were run more than once; the results are listed from low to high. Some schedule codes hold Z or #, which are not explained here. For survival time, the PubChem record calls one and a half times the control and up active, and a quarter to a half above the control has no call in these data; cut-offs in other NCI protocols can differ. Signs of the kind (2×) say how often a value occurs here.

For the compound `CCC[CH2][Sn]([CH2]C)([CH2]C)[O]C(C)=O`, the survivor count is 0 of 6 (dose: 20.0 mg/kg/injection, schedule: Q01DX001 (ip), vehicle: saline with Tween-80); 0 of 6 (dose: 100.0 mg/kg/injection, schedule: Q01DX001 (ip), vehicle: saline with Tween-80); 0 of 6 (dose: 200.0 mg/kg/injection, schedule: Q01DX001 (ip), vehicle: saline with Tween-80); 0 of 6 (dose: 400.0 mg/kg/injection, schedule: Q01DX001 (ip), vehicle: saline with Tween-80).
As for `C#CC(C)OCC(O)CCl` (configuration not stated), the survivor count was 5 of 6 (dose: 200.0 mg/kg/injection, schedule: Q01DX009 (ip), vehicle: saline) and 0 of 6 under setting [1].
Consider `CC(=O)OCC1OC(N2C(=O)/C(=C/c3ccc(Br)s3)SC2=S)C(OC(C)=O)C(OC(C)=O)C1OC(C)=O` (configuration not stated), for which the survivor count is, setting by setting: (dose: 200.0 mg/kg/injection, schedule: Q01DX005 (ip), vehicle: other) 3 of 6; (dose: 400.0 mg/kg/injection, schedule: Q01DX005 (ip), vehicle: other) 0 of 6.
With `C=CCC(C)/C(C)=C(/C#N)C(=O)OCC` (configuration not stated), the survivor count (dose: 300.0 mg/kg/injection, schedule: Q01DX001 (ip), vehicle: other) was 1 of 6.
Consider `CN1C2CCCCC1C1CCCCC2[N+]1(C)C`, for which the survivor count (dose: 150.0 mg/kg/injection, schedule: Q01DX001 (ip), vehicle: saline) is reported as 0 of 6 and the survivor count (dose: 300.0 mg/kg/injection, schedule: Q01DX001 (ip), vehicle: saline) is recorded as 0 of 6.
For `O=C(O)C(Br)C(Br)C(=O)Nc1cccc2ccccc12` (configuration not stated), the survivor count is, setting by setting: (dose: 200.0 mg/kg/injection, schedule: Q01DX009 (ip), vehicle: saline with Tween-80) 1 of 6; (dose: 400.0 mg/kg/injection, schedule: Q01DX009 (ip), vehicle: saline with Tween-80) 0 of 6.
With `Nc1nc(Cl)[nH]c1-c1ncn[nH]1`, under setting [2], the survivor count was 0 of 6.
In the case of `CC(C)N(C(=O)CSc1c(Cl)c(Cl)c(Cl)c(Cl)c1Cl)C(C)C`, the survivor count by setting is: (dose: 400.0 mg/kg/injection, schedule: Q04DX002 (ip), vehicle: other) 1 of 3 and 3 of 6; (dose: 400.0 mg/kg/injection, schedule: Q04DX003 (ip), vehicle: other) 1 of 6.
Turning to `COc1ccc(OC)c(NC(=O)Oc2ccccc2C(N)=O)c1`, the survivor count by setting is: under setting [3], 5 of 6; under setting [4], 4 of 6.
`Cc1ncc(C(O)c2ccccc2)n1Cc1ccccc1` (configuration not stated): the T/C (dose: 100.0 mg/kg/injection, schedule: Q04DX002 (ip), vehicle: Klucel (hydroxypropylcellulose) (HPC)) is recorded as 91, 96, 105, 128 % of control; the T/C (dose: 200.0 mg/kg/injection, schedule: Q04DX002 (ip), vehicle: Klucel (hydroxypropylcellulose) (HPC)) is 96 (2×), 99, 100 % of control; the T/C (dose: 400.0 mg/kg/injection, schedule: Q04DX002 (ip), vehicle: Klucel (hydroxypropylcellulose) (HPC)) was 91, 92, 96, 100 % of control.
As for `CN(C)CCCN1c2ccccc2Sc2ccc(F)cc21`, the survivor count (dose: 50.0 mg/kg/injection, schedule: Q04DX003 (ip), vehicle: saline) is listed as 3 of 6.
`O=C(CBr)c1ccc(S(=O)(=O)c2ccccc2)cc1`: the survivor count was 3 of 4 (dose: 40.0 mg/kg/injection, schedule: Q01DX001 (ip), vehicle: carboxymethylcellulose (CMC)); 0 of 4 (dose: 50.0 mg/kg/injection, schedule: Q01DX001 (ip), vehicle: carboxymethylcellulose (CMC)); 0 of 4 (dose: 80.0 mg/kg/injection, schedule: Q01DX001 (ip), vehicle: carboxymethylcellulose (CMC)); 0 of 4 (dose: 100.0 mg/kg/injection, schedule: Q01DX001 (ip), vehicle: carboxymethylcellulose (CMC)); 0 of 4 (dose: 200.0 mg/kg/injection, schedule: Q01DX001 (ip), vehicle: carboxymethylcellulose (CMC)); 0 of 4 (dose: 400.0 mg/kg/injection, schedule: Q01DX001 (ip), vehicle: carboxymethylcellulose (CMC)).
For `CCCCCCCCCCCCCCCC[N+](C)(C)C1=C([O-])C(=O)N(c2ccc(Cl)c(Cl)c2)C1=O`, the survivor count is listed as 0 of 3 under setting [5] and 0 of 3 under setting [6].
As for `CCC1COC(=S)N1` (configuration not stated), the survivor count is on record as 0 of 6 (dose: 25.0 mg/kg/injection, schedule: Q01DX009 (ip), vehicle: saline); 0 of 3 (dose: 50.0 mg/kg/injection, schedule: Q04DX002 (ip), vehicle: saline with Tween-80); 0 of 6 (dose: 75.0 mg/kg/injection, schedule: Q01DX001 (ip), vehicle: Klucel (hydroxypropylcellulose) (HPC)); 0 of 3 (dose: 100.0 mg/kg/injection, schedule: Q04DX002 (ip), vehicle: saline with Tween-80); 0 of 6 (dose: 150.0 mg/kg/injection, schedule: Q01DX001 (ip), vehicle: Klucel (hydroxypropylcellulose) (HPC)); 0 of 3 under setting [5]. Besides, the survivor count is given as 0 of 6 (dose: 300.0 mg/kg/injection, schedule: Q01DX001 (ip), vehicle: Klucel (hydroxypropylcellulose) (HPC)) and 0 of 3 under setting [6].
Take `CSc1ccc(NC(=O)Nc2ccc(Cl)cc2C(=O)c2ccccc2)cc1`: the survivor count (dose: 400.0 mg/kg/injection, schedule: Q01DX009 (ip), vehicle: Klucel (hydroxypropylcellulose) (HPC)) is reported as 6 of 6.
Turning to `Cc1[nH]nc(C(F)(F)F)c1N=NN(C)C`, the survivor count was 4 of 6 (dose: 265.0 mg/kg/injection, schedule: Q01DX009 (ip), vehicle: saline); 5 of 6 under setting [1]; 5 of 6 (dose: 600.0 mg/kg/injection, schedule: Q01DX009 (ip), vehicle: saline).
Turning to `CC1CN=C(c2cccc(NC(=O)c3ccc(C(=O)Nc4cccc(C5=NCC(C)N5)c4)c(N)c3)c2)N1` (configuration not stated), the survivor count is recorded as 3 of 6 (dose: 5.0 mg/kg/injection, schedule: Q01DX Z (ip), vehicle: water) and 0 of 6 (dose: 10.0 mg/kg/injection, schedule: Q01DX Z (ip), vehicle: water).
For `CCCCCCCCCCOC(=O)c1ccccn1`, under setting [2], the survivor count is 4 of 4.
For `CCCC(SCC(=O)O)SCC(=O)O`, under setting [1], the survivor count is 1 of 3.
For `CCCCNCCC[P+](c1ccccc1)(c1ccccc1)c1ccccc1`, the survivor count was 3 of 3 (dose: 100.0 mg/kg/injection, schedule: Q04DX002 (ip), vehicle: saline); 1 of 3 (dose: 200.0 mg/kg/injection, schedule: Q04DX002 (ip), vehicle: saline); 0 of 3 (dose: 400.0 mg/kg/injection, schedule: Q04DX002 (ip), vehicle: saline).
Regarding `Cc1cc(-c2ccc([N+](=O)[O-])cc2)cn1-c1ccccc1`, under setting [5], the survivor count is 3 of 3.
Take `O=C1C=CC(=O)N1c1ccc(Cl)cc1Cl`: the survivor count is listed as 0 of 3 (dose: 100.0 mg/kg/injection, schedule: Q04DX003 (ip), vehicle: saline with Tween-80); 0 of 3 (dose: 200.0 mg/kg/injection, schedule: Q04DX003 (ip), vehicle: saline with Tween-80); 0 of 3 (dose: 400.0 mg/kg/injection, schedule: Q04DX003 (ip), vehicle: saline with Tween-80).
For the compound `O=Cc1c[nH]c(=O)[nH]c1=O`, under setting [1], the survivor count is listed as 3 of 6.
As to `C/C(=N\[N+](C)(C)C)c1ccc2ccccc2c1`, the survivor count under setting [3] is 0 of 6 and the survivor count under setting [4] is reported as 0 of 6.
`Cc1ccc(NC(=O)N2CC2(C)C)cc1NC(=O)N1CC1(C)C`: the T/C under setting [4] is 141 % of control.
